Data as given in PubChem BioAssay AID1224830 (NIAID, 2016)
Purpose: 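Regulators of TLR4 signalling towards TNF-alpha in macrophage-like cells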 (primary screen). Cells: human THP-1 monocytic leukaemia cells, TNF dual-luciferase reporter clone, PMA-differentiated to macrophage-like cells. Reagents: siRNA pool against human genes, 50 nM. Duration: LPS for 4 h, given about 3 days after siRNA transfection. Conditions: bacterial LPS (TLR4 ligand), 10 ng/ml. Measurement: 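Ratio of firefly to renilla light, scaled to the plate median and expressed as a robust z-score per replicate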. Reading the numbers: TNF reporter robust z-score: higher = stronger TNF reporter response to LPS. Active means: 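Each well counts as active if its z-score is over 2.8 or under -1.5; controls are left without a call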.
The deposit covers about 18,000 reagents; shown is a random part of them. About 2,900 of them (16%) count as active. 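Calls are made per well; low scores hint the gene aids the LPS response, high scores that it dampens it.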 Entries without a mark were called inactive. Repeated entries: four replicate wells of each siRNA pool.

gene | TNF reporter robust z-score
SASH1 (SAM and SH3 domain containing 1) | 0.45
SASH1 (SAM and SH3 domain containing 1) | 1.7
SASH1 (SAM and SH3 domain containing 1) | -1.06
SASH1 (SAM and SH3 domain containing 1) | 0.54
RUNX3 (RUNX family transcription factor 3) | 0.08
RUNX3 (RUNX family transcription factor 3) | 0.71
RUNX3 (RUNX family transcription factor 3) | 0.52
RUNX3 (RUNX family transcription factor 3) | 0.44
IL6 (interleukin 6) | -0.63
IL6 (interleukin 6) | -0.66
IL6 (interleukin 6) | -0.77
IL6 (interleukin 6) | -0.25
GARIN1B (golgi associated RAB2 interactor 1B) | 0.3
GARIN1B (golgi associated RAB2 interactor 1B) | 1.17
GARIN1B (golgi associated RAB2 interactor 1B) | 1.23
GARIN1B (golgi associated RAB2 interactor 1B) | 1.43
TMPRSS7 (transmembrane serine protease 7) | 0.91
TMPRSS7 (transmembrane serine protease 7) | 0.75
TMPRSS7 (transmembrane serine protease 7) | -0.65
TMPRSS7 (transmembrane serine protease 7) | 1.2
GPR83 (G protein-coupled receptor 83) | -0.54
GPR83 (G protein-coupled receptor 83) | -0.1
GPR83 (G protein-coupled receptor 83) | 0.76
GPR83 (G protein-coupled receptor 83) | 0.61
CCT8L2 (chaperonin containing TCP1 subunit 8 like 2) | -0.61
CCT8L2 (chaperonin containing TCP1 subunit 8 like 2) | -0.5
CCT8L2 (chaperonin containing TCP1 subunit 8 like 2) | -0.12
CCT8L2 (chaperonin containing TCP1 subunit 8 like 2) | -0.28
CCDC86 (coiled-coil domain containing 86) | -0.61
CCDC86 (coiled-coil domain containing 86) | -0.5
CCDC86 (coiled-coil domain containing 86) | -0.7
CCDC86 (coiled-coil domain containing 86) | -0.54
HSPA1A (heat shock protein family A (Hsp70) member 1A) | 0.22
HSPA1A (heat shock protein family A (Hsp70) member 1A) | 0.88
HSPA1A (heat shock protein family A (Hsp70) member 1A) | 1.34
HSPA1A (heat shock protein family A (Hsp70) member 1A) | -0.27
OR13C2 (olfactory receptor family 13 subfamily C member 2) | 0.57
OR13C2 (olfactory receptor family 13 subfamily C member 2) | 1.08
OR13C2 (olfactory receptor family 13 subfamily C member 2) | 1.4
OR13C2 (olfactory receptor family 13 subfamily C member 2) | 1.64

Entries listed so far whose gene name starts with T or t:
gene | TNF reporter robust z-score
TMPRSS7 (transmembrane serine protease 7) | 0.91
TMPRSS7 (transmembrane serine protease 7) | 0.75
TMPRSS7 (transmembrane serine protease 7) | -0.65
TMPRSS7 (transmembrane serine protease 7) | 1.2

The list goes on:
gene | TNF reporter robust z-score
SPINT2 (serine peptidase inhibitor, Kunitz type 2) | 0.31
SPINT2 (serine peptidase inhibitor, Kunitz type 2) | 0.36
SPINT2 (serine peptidase inhibitor, Kunitz type 2) | 0.56
SPINT2 (serine peptidase inhibitor, Kunitz type 2) | 0.79
CDC20 (cell division cycle 20) | 2.33
CDC20 (cell division cycle 20) | 1.17
CDC20 (cell division cycle 20) | 2.21
CDC20 (cell division cycle 20) | -0.03
SNX20 (sorting nexin 20) | -0.61
SNX20 (sorting nexin 20) | -0.56
SNX20 (sorting nexin 20) | -1.1
SNX20 (sorting nexin 20) | -0.7
ARL16 (ARF like GTPase 16) | 0.1
ARL16 (ARF like GTPase 16) | -0.29
ARL16 (ARF like GTPase 16) | 0.15
ARL16 (ARF like GTPase 16) | -0.28
AMER1 (APC membrane recruitment protein 1) | -0.55
AMER1 (APC membrane recruitment protein 1) | 1.5
AMER1 (APC membrane recruitment protein 1) | -0.68
AMER1 (APC membrane recruitment protein 1) | 1.91
RFX6 (regulatory factor X6) | 0.35
RFX6 (regulatory factor X6) | 0.94
RFX6 (regulatory factor X6) | 0.83
RFX6 (regulatory factor X6) | 0.6
FMC1 (formation of mitochondrial complex V assembly factor 1) | -1.33
FMC1 (formation of mitochondrial complex V assembly factor 1) | -1.48
FMC1 (formation of mitochondrial complex V assembly factor 1) | -1.55 (active)
FMC1 (formation of mitochondrial complex V assembly factor 1) | -1.42
TYMS (thymidylate synthetase) | -0.25
TYMS (thymidylate synthetase) | 0.01
TYMS (thymidylate synthetase) | -0.15
TYMS (thymidylate synthetase) | -0.1
TOMM7 (translocase of outer mitochondrial membrane 7) | -0.63
TOMM7 (translocase of outer mitochondrial membrane 7) | 0.39
TOMM7 (translocase of outer mitochondrial membrane 7) | 0
TOMM7 (translocase of outer mitochondrial membrane 7) | -0.28
